Measured values reported in PubChem BioAssay AID1259354 (Paczesny and Yang Labs, IUPUI and University of Michigan, 2018).
Several values for one entry are separate records, joined by “and”; a condition that tells them apart may be missing. Equal values may be shown once. Hit rate of the full screen: of about 78,000 compounds, about 1,800 (2.3%) were called active. The inconclusive results got no clear call from the source; some entries with a clear call stand among them for comparison. Cut-off read from the data, not from the text of the source: active = inhibition above about 30%; inconclusive = mostly about 10% to 28%; inactive = weaker than that.

The chains behind the UniProt entries cited, without tags or fusion partners. Where a name states a change or a piece, a line headed by the entry shows the natural chain unless it says otherwise.
UniProt Q01638: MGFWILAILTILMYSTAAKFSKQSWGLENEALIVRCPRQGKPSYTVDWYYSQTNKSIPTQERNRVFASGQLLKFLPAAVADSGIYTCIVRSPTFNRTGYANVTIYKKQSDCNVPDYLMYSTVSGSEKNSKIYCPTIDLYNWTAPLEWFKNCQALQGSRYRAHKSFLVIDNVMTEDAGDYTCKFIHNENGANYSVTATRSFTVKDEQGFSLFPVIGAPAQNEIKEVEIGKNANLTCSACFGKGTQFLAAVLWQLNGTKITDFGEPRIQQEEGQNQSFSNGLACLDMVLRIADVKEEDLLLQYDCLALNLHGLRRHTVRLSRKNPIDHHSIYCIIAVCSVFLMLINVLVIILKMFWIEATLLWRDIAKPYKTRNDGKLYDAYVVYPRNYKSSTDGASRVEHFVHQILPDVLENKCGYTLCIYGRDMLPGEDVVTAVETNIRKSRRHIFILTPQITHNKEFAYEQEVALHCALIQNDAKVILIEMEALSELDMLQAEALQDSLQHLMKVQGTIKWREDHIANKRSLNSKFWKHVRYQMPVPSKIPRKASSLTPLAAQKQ

Biological target: Interleukin-1 receptor-like 1 (Homo sapiens) (UniProt Q01638)
Assay: blocks human ST2 binding to IL-33, primary screen, biochemical, AlphaLISA (AID 1259354)
Conditions: AlphaLISA ST2-Fc/biotin-IL-33 interaction, 1 h; at 17 µM, stronger effect = higher value

SMILES | inhibition
N#C/C(=C\c1cccn1-c1ccc(S(N)(=O)=O)cc1)c1nc2ncc(Br)cc2[nH]1 | inconclusive: 21%
O=C1C2[C@H](C(=O)N1c1ccc(Cl)c(C(F)(F)F)c1)[C@H]1C=C[C@@]2(CO)O1 (stereo partly drawn) | inactive
CCOC(=O)C1(CCc2ccccc2)CCCN(Cc2ccncc2)C1 (stereo not drawn) | inactive
COc1cc2c(cc1OC)-c1cc(=Nc3c(C)cc(C)cc3C)n(C)c(=O)n1CC2 | inconclusive: 27%
Cc1ccc(O)c(C2NC(=O)c3c(sc(C)c3C)N2)c1 (stereo not drawn) | inconclusive: 29%
Cc1ccc(C(C)C)cc1S(=O)(=O)NCc1ccco1 | inconclusive: 19%
O=C1CCCN2N=C(SCC(=O)c3ccc(Cl)cc3)SC2=N1 | inactive
O=C(O)C1(C/C=C/c2ccccc2)CCCN(c2ncnc3nc[nH]c23)C1 (stereo not drawn) | inconclusive: 13%
CCC1CCCN1CNC(=O)c1cc(OC)c(OC)c(OC)c1 (stereo not drawn) | inconclusive: 23%
CC(=O)Nc1ccc(Oc2ncnc3sc4c(c23)CCCC4)cc1 | inactive
Cn1ccc(C2CCCCN2S(=O)(=O)NCc2ccccc2)n1 (stereo not drawn) | inconclusive: 18%
Cc1ccc(NC(=O)CNCCOc2ccccc2)c(C)c1 | inactive
N#C/C(=C/c1cccnc1)c1nnc2n1CCCCC2 | inactive
COc1ccc(C(C)(C)C)cc1NC(=O)C1CC=CCC1C(=O)O (stereo not drawn) | inconclusive: 20%
COc1ccc(C(=O)Nc2ccccc2[N+](=O)[O-])cc1 | inconclusive: 13%
N=c1oc2c(Cl)cc(Cl)cc2cc1C(N)=O | inconclusive: 17%
CC(=O)c1ccc(NC(=O)N[C@H]2CO[C@H]3[C@@H]2OC[C@H]3OC(=O)Nc2ccc(Oc3ccccc3)cc2)cc1 | inconclusive: 23%
Cc1nc2c(ccc3nc(NC(=O)c4cccc(Br)c4)sc32)s1 | inactive
CC(=O)Nc1ccc(S(=O)(=O)N[C@H]2CO[C@H]3[C@@H]2OC[C@H]3OC(=O)Nc2ccc(C(C)C)cc2)cc1 | inactive
Cc1ccc(N2CCN(C3C4CC5CC(C4)CC3C5)CC2)cc1 (stereo not drawn) | inconclusive: 11%
COc1cc2c(cc1OC)C(c1ccccc1)NC(=O)C2 (stereo not drawn) | inactive
OCC1(CCCc2ccccc2)CCN(Cc2ccc3c(c2)OCCO3)CC1 | inconclusive: 10%
COc1ccc(-c2noc([C@@H]3C[C@H](NCc4ccc(NC(C)=O)cc4)CN3C)n2)cc1 | inactive
CC1CC(C)CN(CCCNC(=O)Cc2c(C(=O)O)[nH]c3ccc(Cl)cc23)C1 (stereo not drawn) | inactive

SMILES | inhibition
O=C1CCN(C(=O)c2nn(CCc3ccccc3)c3c2CN(C(=O)Cc2cccs2)CC3)CCN1 | active: 33%
CC(Sc1nc2c(c(=O)n1-c1ccccc1)SCC2)c1ccccc1 (stereo not drawn) | inconclusive: 22% and inconclusive: 12%
CCn1c(=O)c([N+](=O)[O-])c(Nc2ccc(NC(C)=O)cc2)c2ccccc21 | inconclusive: 11%
O=[N+]([O-])c1cc2c(cc1C=Nc1ccc(I)cc1)OCO2 | inactive
COc1ccc(C2(CNC(C)=O)CCOCC2)cc1OC | inconclusive: 10%
Cc1cccc(NC(=O)Cn2c(-c3ccc4c(c3)OCO4)cn(-c3ccccc3)c2=O)c1C | inconclusive: 27%
COc1nc2ccccc2cc1-c1cc(N)ccn1 | inconclusive: 14%
OCCCn1c(-c2ccccc2)csc1=Nc1ccccc1 | active: 61%
Cc1ccccc1CSC1=NCCN1C(=O)c1ccccc1C | inconclusive: 13%
Cc1ccc(C)c(N2CCN(C(=O)C3CCN(S(=O)(=O)c4cccs4)CC3)CC2)c1 | inactive
COc1ccc(C(=O)N2CCN(S(=O)(=O)c3cc4c5c(c3)CCN5C(=O)CC4)CC2)cc1OC | inconclusive: 19%
Cc1ccc(Cl)cc1N1C(=O)c2c(C)nc3ccccc3c2C1=O | active: 31%
CNc1cc(-c2cnc(-n3cnnc3)c(C)c2)c2cc[nH]c2n1 | inconclusive: 10%
COc1cc(-c2cccs2)cc2c1OCCN(C(=O)CCc1cn[nH]c1)C2 | inconclusive: 13%
O=C(c1cn2ccsc2n1)N1C[C@H]2OC(=O)N(Cc3ccccn3)[C@H]2C1 | inconclusive: 15%
O=C(CCC1CCCN(C(=O)Cc2cccs2)C1)N1CCN(Cc2ccccc2)CC1 (stereo not drawn) | inconclusive: 12%
COc1ccc(/C=C2/C(=O)N=C(N)N2C)cc1OC | inactive
Cc1cccc(/C=C2\N=C(c3ccc4c(c3)OCO4)OC2=O)c1 | inactive
O=C(CCN1CCCCO1)N1CCC2(CCCN(Cc3ccc(F)cc3)C2)C1 (stereo not drawn) | inconclusive: 15%
Cc1cc(C)cc(CSCC(=O)N2CCCC3(CNC(=O)O3)C2)c1 (stereo not drawn) | inconclusive: 21%
c1ccc(-c2nnc([C@H]3CCN(Cc4ncc[nH]4)C3)o2)cc1 | inconclusive: 10%
CCOC(=O)c1ccc2c(c1)C1C=CCC1C(c1ccccc1F)N2 (stereo not drawn) | inconclusive: 15%
O=C(c1cc2cc3ccc(Cl)cc3nc2o1)N1CCCC1 | inactive
O=C(Nc1ccccc1)N1C[C@@H]2C[C@H](C1)c1c(-c3ccc4ccccc4c3)ccc(=O)n1C2 | inconclusive: 23%

Looked up above.
CCOC(=O)c1ccc2c(c1)C1C=CCC1C(c1ccccc1F)N2 (stereo not drawn) | inhibition: inconclusive: 15%
Cc1cccc(/C=C2\N=C(c3ccc4c(c3)OCO4)OC2=O)c1 | inhibition: inactive
CCn1c(=O)c([N+](=O)[O-])c(Nc2ccc(NC(C)=O)cc2)c2ccccc21 | inhibition: inconclusive: 11%
CC(=O)Nc1ccc(S(=O)(=O)N[C@H]2CO[C@H]3[C@@H]2OC[C@H]3OC(=O)Nc2ccc(C(C)C)cc2)cc1 | inhibition: inactive
COc1ccc(C(=O)Nc2ccccc2[N+](=O)[O-])cc1 | inhibition: inconclusive: 13%

The results go on:

SMILES | inhibition
Cc1n[nH]c(C)c1S(=O)(=O)N1CCC(C(=O)NC2CCCc3ccccc32)CC1 (stereo not drawn) | inactive
O=C(COc1cccc(Br)c1)N1CCc2ccccc21 | inconclusive: 16%
CC(C)CSc1nc2c(cnn2-c2ccc(F)cc2)c(=O)[nH]1 | inconclusive: 11%
Cc1ccc(-n2c(=O)c3sccc3n(CC(=O)NCC3CCCO3)c2=O)cc1 (stereo not drawn) | inactive
CNC(=O)CC(C)N(C)C(=O)c1[nH]c2c(C)ccc(C)c2c1C (stereo not drawn) | inconclusive: 11%
COc1ccccc1CNS(=O)(=O)c1ccc(OC)c(OC)c1 | inconclusive: 19%
O=[N+]([O-])c1ccc(-c2noc(Cc3ccccc3)n2)cc1 | inconclusive: 20%
C=CCc1cc(OC)ccc1OCCCn1ccnc1 | inactive
COc1cccc(C2Nc3ccccc3C(=O)N2c2ccc(Cl)cc2)c1OC (stereo not drawn) | inactive
O=C1C[C@H]2CC[C@@H](CN1)N2C(=O)c1ccc2ncsc2c1 | inconclusive: 14%
CCOc1ccccc1C1C(C(=O)OCCOC)=C(C)NC2=C1C(=O)CC(C)(C)C2 (stereo not drawn) | inactive
Cc1cc(C)cc(-n2c(=O)c3sccc3n(CC(=O)NC3CCCC3)c2=O)c1 | inconclusive: 12%
CCn1nc(C(=O)N2CCSCC2)c2c1CCC(NCc1ccc(OC(F)(F)F)cc1)C2 (stereo not drawn) | inconclusive: 18%
O=C1CSC(c2ccc([N+](=O)[O-])cc2)N1c1ccc(Cl)cc1 (stereo not drawn) | inconclusive: 18%
Cc1ccccc1NC(=O)CC(=O)NCCOc1c(C)cccc1Cl | inconclusive: 16%
COc1ccc(Br)cc1C1CC(=O)Nc2cc(C)c(C)cc21 (stereo not drawn) | inconclusive: 25% and inconclusive: 18%
CC(=NC(C)C)C1=C(O)CC(C)(C)CC1=O | inactive
Cc1c(Br)c([N+](=O)[O-])nn1CCCC(=O)Nc1sc2c(c1C(N)=O)CCCC2 | inconclusive: 14%
O=C(CSCc1ccccc1Cl)NCc1noc(-c2ccco2)n1 | inconclusive: 10%
CCc1ccc(S(=O)(=O)N=C2C=C(Nc3ccccc3)C(=O)c3ccccc32)cc1 | active: 79%
CCC(Sc1nc2c(c(=O)n1-c1ccc(F)cc1)SCC2)C(=O)OC (stereo not drawn) | inconclusive: 15%
Cc1cc2n(c1)CCn1c(C)ccc1-2 | active: 63%
CN1CCN(C(=O)c2ccccc2[N+](=O)[O-])CC1 | inconclusive: 15%
O=C(N[C@H]1CO[C@H]2[C@@H]1OC[C@@H]2Nc1nccc(-c2cccs2)n1)C1CCCCC1 | inconclusive: 10%

SMILES | inhibition
Oc1oc(-c2ccccc2)nc1C=Nc1ccc(Br)cc1Br | inactive
Cc1occc1C(=O)Nc1sc(C)c(C)c1C(N)=O | inconclusive: 19%
CCOC(=O)N1CCC(NC(=O)C2CC23CCN(C(=O)CSc2ccccc2)CC3)CC1 (stereo not drawn) | inconclusive: 12%
N#C/C(=C\c1ccc(-c2cc([N+](=O)[O-])ccc2Cl)o1)c1[nH]nc(N)c1C#N | active: 45%
CCOc1ccc(C(=O)Nc2ccc(Nc3nc(C)cc(Nc4ccc(C)cc4)n3)cc2)cc1OCC | inconclusive: 20%
Cc1ccc2nc3c(c(N)c2c1)CCN3c1ccccc1 | inconclusive: 14%
COCc1ccc(CN2CCCC(C(=O)c3cc(C)c(OC)c(C)c3)C2)o1 (stereo not drawn) | inconclusive: 14%
COC(=O)c1cc(N2C[C@H]3CC=C(C)C[C@H]3C2)ncn1 | inactive
Cc1cc(N2CCN(C)CC2)nc2ccc(NC(=O)c3cccnc3Cl)cc12 | inconclusive: 16%
O=[N+]([O-])c1ccc(Cl)c(N=Cc2nc(-c3ccccc3)oc2O)c1 | inconclusive: 13%
O=S(=O)(NCc1nc2cccnc2n1Cc1ccc(Cl)cc1)c1ccc(F)c(Cl)c1 | inactive
O=C(NCCc1ccccc1)c1ccc2nc3ccc(Cl)cc3c(=O)n2c1 | inconclusive: 18%
O=[N+]([O-])c1cccc(-c2nc3sc(-c4cccc([N+](=O)[O-])c4)nc3s2)c1 | inconclusive: 11%
COc1cc([N+](=O)[O-])cc(C=Nc2ncccc2O)c1O | active: 42%
O=S(=O)(NCCc1ccccc1Cl)c1cccc2nsnc12 | inconclusive: 15%
CC(C)C[C@@H](N)C(=O)NCc1ccccc1-n1ccnc1 | inconclusive: 16%
Cn1cc(CC(=O)N2CCN(c3cccc(Cl)c3)CC2)c2ccccc21 | inactive
COc1ccc(N2C(=O)C3CCCN3C2c2cccs2)cc1Cl (stereo not drawn) | inconclusive: 18%
Cn1ccnc1Sc1cc(N2CCOCC2)ccc1[N+](=O)[O-] | inactive
Cc1ccc(NC(=O)N2CCC(=O)N(CC3CC3)C(C(C)C)C2)cc1 (stereo not drawn) | inconclusive: 10%
Cc1nc2c(N)c(Cl)c(Cl)c(N)c2[nH]1 | inactive
